Test results as given in PMC5601897, “The catalytic subunit of DNA polymerase δ inhibits γTuRC activity and regulates Golgi-derived microtubules” (Nature Communications, 2017).

By UniProt entry, the sequences of proteins in these tests, tags left out. Where a name states a change or a piece, a line headed by the entry shows the natural chain unless it says otherwise. Chains listed by the source or under a name are the forms on record and can include a tag or linker. Residues count along the entry.
UniProt P28340: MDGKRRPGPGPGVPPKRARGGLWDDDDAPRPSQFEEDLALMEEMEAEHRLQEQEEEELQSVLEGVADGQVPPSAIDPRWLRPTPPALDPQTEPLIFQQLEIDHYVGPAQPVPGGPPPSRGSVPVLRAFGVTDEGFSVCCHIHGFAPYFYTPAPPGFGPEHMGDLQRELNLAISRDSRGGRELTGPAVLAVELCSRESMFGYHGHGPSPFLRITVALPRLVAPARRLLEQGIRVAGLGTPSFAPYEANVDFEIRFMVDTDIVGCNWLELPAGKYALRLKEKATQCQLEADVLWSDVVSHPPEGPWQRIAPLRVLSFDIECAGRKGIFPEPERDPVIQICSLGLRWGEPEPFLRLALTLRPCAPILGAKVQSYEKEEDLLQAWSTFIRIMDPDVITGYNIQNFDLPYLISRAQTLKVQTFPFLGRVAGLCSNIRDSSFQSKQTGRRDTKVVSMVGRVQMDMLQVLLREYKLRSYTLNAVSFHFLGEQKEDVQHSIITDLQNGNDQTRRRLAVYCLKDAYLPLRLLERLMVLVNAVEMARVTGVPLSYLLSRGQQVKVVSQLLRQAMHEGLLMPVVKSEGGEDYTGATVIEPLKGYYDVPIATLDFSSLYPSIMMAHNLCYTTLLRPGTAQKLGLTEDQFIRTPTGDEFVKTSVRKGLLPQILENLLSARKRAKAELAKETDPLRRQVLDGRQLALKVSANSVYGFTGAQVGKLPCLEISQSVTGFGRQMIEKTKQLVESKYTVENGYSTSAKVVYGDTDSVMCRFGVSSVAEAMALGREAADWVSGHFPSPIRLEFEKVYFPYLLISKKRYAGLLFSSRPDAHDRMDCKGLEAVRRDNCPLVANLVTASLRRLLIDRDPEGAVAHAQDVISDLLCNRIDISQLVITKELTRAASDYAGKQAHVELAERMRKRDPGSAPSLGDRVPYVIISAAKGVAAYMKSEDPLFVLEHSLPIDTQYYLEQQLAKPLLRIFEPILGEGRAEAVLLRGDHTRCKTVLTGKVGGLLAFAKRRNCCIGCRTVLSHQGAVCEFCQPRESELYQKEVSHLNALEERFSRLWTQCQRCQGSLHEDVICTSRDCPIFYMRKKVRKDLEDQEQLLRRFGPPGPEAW
FLAG-tagged PolD1 fragment 1–316: residues 1-316 of P28340
FLAG-tagged PolD1 fragment 247–955: residues 247-955 of P28340
FLAG-PolD1 S605del, ectopically expressed (P28340, form named): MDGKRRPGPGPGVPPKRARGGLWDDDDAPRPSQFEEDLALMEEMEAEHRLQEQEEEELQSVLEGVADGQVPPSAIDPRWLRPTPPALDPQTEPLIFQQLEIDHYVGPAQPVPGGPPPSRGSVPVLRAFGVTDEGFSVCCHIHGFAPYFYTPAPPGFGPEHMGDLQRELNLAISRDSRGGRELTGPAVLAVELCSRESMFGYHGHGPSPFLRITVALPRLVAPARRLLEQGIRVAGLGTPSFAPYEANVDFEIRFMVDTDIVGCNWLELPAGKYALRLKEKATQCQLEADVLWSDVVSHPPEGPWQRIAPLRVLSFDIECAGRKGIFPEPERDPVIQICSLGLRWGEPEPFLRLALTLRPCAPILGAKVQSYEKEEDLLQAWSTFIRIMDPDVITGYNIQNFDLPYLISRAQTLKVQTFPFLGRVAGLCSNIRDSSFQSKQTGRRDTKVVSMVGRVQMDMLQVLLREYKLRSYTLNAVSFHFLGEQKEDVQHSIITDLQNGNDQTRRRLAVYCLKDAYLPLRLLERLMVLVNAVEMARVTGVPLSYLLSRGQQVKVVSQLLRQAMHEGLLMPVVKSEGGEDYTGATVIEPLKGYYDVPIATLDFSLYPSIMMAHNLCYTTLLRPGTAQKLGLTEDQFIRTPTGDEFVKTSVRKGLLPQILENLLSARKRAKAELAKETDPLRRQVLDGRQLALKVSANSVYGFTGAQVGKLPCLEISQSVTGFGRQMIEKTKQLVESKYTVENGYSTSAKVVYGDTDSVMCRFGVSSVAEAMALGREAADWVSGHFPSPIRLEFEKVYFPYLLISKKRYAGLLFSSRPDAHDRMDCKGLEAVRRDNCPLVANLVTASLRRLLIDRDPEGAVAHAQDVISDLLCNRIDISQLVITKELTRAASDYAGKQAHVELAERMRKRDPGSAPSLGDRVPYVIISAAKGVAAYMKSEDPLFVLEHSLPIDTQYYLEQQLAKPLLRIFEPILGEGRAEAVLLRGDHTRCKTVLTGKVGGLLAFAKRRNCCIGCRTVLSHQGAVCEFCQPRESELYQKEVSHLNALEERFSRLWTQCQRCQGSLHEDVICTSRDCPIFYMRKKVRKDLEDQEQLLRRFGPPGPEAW
UniProt P23258: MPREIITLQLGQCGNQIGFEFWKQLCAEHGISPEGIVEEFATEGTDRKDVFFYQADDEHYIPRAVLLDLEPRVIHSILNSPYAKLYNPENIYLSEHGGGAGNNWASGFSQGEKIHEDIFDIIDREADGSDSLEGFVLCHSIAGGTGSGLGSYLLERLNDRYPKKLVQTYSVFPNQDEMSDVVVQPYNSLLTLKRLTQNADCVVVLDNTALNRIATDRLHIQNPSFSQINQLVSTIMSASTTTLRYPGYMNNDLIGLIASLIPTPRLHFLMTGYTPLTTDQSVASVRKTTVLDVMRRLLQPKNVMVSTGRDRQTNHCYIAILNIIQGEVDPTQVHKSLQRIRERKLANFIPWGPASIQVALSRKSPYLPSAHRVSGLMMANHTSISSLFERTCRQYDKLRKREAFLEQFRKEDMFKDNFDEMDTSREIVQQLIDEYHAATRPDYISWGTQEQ

Tests used:
Test in all cases: co-IP; FLAG-tagged PolD1, its mutants or fragments expressed in HEK293T cells; anti-FLAG M2 beads in extracts (0.5% IGEPAL CA-630), 4 °C, 2 h; cells with control or GCP4-specific siRNA in Fig. 1c; immunoblot of endogenous partners
[1] = molecular target: FLAG-PolD1 D515V, ectopically expressed (human) (UniProt P28340)
[2] = molecular target: FLAG-PolD1 S605del, ectopically expressed (human) (UniProt P28340)
[3] = molecular target: FLAG-tagged PolD1 fragment 247–955 (human) (UniProt P28340)
[4] = molecular target: FLAG-PolD1 (wild type), ectopically expressed (human) (UniProt P28340)
[5] = molecular target: FLAG-tagged PolD1 fragment 1–316 (human) (UniProt P28340)

γ-tubulin, endogenous (from UniProt P23258)
binding [1]: binds
binding [2]: binds
binding [3]: binds
binding [4]: binds
binding [5]: no binding

These are yes or no findings as the source states them, for the method shown. Binding seen in cells or lysates may run through a third protein. For some assays here: A result given as binding can be weak or reduced; the word gives no strength.
